Data published in PMC11233601.
Where a chain is given by its changes, count along the chain named. No constants are given. Whether binding was seen depends on the method and setting. In cells and extracts the contact can be indirect. Some binding calls cover weakened binding; strength is not graded here. For some of these results: Tags and fused reporters may be left off the sequences shown.

By UniProt entry, the sequences of proteins in these tests, tags left out.
UniProt Q9DB52: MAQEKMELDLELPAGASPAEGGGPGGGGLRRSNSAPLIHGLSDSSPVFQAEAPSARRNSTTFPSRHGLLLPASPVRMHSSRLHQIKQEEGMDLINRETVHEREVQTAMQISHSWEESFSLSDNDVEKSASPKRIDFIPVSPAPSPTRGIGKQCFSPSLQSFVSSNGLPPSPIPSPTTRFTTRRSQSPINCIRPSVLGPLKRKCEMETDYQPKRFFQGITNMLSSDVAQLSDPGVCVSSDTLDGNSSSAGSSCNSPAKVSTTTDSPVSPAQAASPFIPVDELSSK

Experiments:
B55α-N-FAST = biological target: T1, B55α-N-FAST (UniProt P63151); assay: split reporter; Split-FAST: B55α-N-FAST and FAM122A-C-FAST10 co-transfected in U-2 OS cells, HMBR fluorogen added 48 h later, fluorescence microscopy
T1 sequence: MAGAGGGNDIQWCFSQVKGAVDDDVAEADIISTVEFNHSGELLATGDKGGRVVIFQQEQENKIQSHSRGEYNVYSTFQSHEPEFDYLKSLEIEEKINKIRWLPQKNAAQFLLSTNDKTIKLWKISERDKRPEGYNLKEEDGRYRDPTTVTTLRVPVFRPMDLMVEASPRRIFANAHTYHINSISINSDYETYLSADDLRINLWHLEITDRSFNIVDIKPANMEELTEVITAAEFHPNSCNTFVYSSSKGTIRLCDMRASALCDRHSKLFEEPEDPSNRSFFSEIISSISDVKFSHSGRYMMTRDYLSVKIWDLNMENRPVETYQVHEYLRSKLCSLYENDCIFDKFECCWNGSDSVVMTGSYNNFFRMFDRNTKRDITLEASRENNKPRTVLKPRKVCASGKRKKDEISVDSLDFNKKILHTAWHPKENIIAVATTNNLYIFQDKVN

Myc-B55α C239G = biological target: T2, Myc-B55α C239G (UniProt P63151); assay: co-IP; HEK293T cotransfected with FLAG-FAM122A and Myc-B55α WT and mutants; anti-Myc and anti-FLAG beads 3 h or overnight at 4 °C, washes with DIP lysis buffer, western blot
T2 sequence: T1 sequence with C239G

Myc-B55α D197K = biological target: T3, Myc-B55α D197K (UniProt P63151); assay: as above
T3 sequence: T1 sequence with D197K

Myc-B55α wild type = biological target: T4, Myc-B55α wild type (UniProt P63151); assay: as above
T4 sequence: T1 sequence

| binding (B55α-N-FAST) | binding (Myc-B55α C239G) | binding (Myc-B55α D197K) | binding (Myc-B55α wild type) | Substance |
| --- | --- | --- | --- | --- |
| binds |  |  |  | FAM122A-C-FAST10 (from UniProt Q9DB52 1-284) |
|  | binds | no binding | binds | murine FLAG-FAM122A wild type (from UniProt Q9DB52 1-284) |
